Source: PMC8677624
Results are given in words; binding and its absence hold for the method and conditions named. Binding seen in cells or lysates may run through a third protein. A result given as binding can be weak or reduced; the word gives no strength. For some of these results: Tags and fused reporters may be left off the sequences shown.

B1: O-GlcNAc transferase (OGT), endogenous (enzyme, UniProt O15294 1-1046)
chain: MASSVGNVADSTEPTKRMLSFQGLAELAHREYQAGDFEAAERHCMQLWRQEPDNTGVLLLLSSIHFQCRRLDRSAHFSTLAIKQNPLLAEAYSNLGNVYKERGQLQEAIEHYRHALRLKPDFIDGYINLAAALVAAGDMEGAVQAYVSALQYNPDLYCVRSDLGNLLKALGRLEEAKACYLKAIETQPNFAVAWSNLGCVFNAQGEIWLAIHHFEKAVTLDPNFLDAYINLGNVLKEARIFDRAVAAYLRALSLSPNHAVVHGNLACVYYEQGLIDLAIDTYRRAIELQPHFPDAYCNLANALKEKGSVAEAEDCYNTALRLCPTHADSLNNLANIKREQGNIEEAVRLYRKALEVFPEFAAAHSNLASVLQQQGKLQEALMHYKEAIRISPTFADAYSNMGNTLKEMQDVQGALQCYTRAIQINPAFADAHSNLASIHKDSGNIPEAIASYRTALKLKPDFPDAYCNLAHCLQIVCDWTDYDERMKKLVSIVADQLEKNRLPSVHPHHSMLYPLSHGFRKAIAERHGNLCLDKINVLHKPPYEHPKDLKLSDGRLRVGYVSSDFGNHPTSHLMQSIPGMHNPDKFEVFCYALSPDDGTNFRVKVMAEANHFIDLSQIPCNGKAADRIHQDGIHILVNMNGYTKGARNELFALRPAPIQAMWLGYPGTSGALFMDYIITDQETSPAEVAEQYSEKLAYMPHTFFIGDHANMFPHLKKKAVIDFKSNGHIYDNRIVLNGIDLKAFLDSLPDVKIVKMKCPDGGDNADSSNTALNMPVIPMNTIAEAVIEMINRGQIQITINGFSISNGLATTQINNKAATGEEVPRTIIVTTRSQYGLPEDAIVYCNFNQLYKIDPSTLQMWANILKRVPNSVLWLLRFPAVGEPNIQQYAQNMGLPQNRIIFSPVAPKEEHVRRGQLADVCLDTPLCNGHTTGMDVLWAGTPMVTMPGETLASRVAASQLTCLGCLELIAKNRQEYEDIAVKLGTDLEYLKKVRGKVWKQRISSPLFNTKQYTMELERLYLQMWEHYAAGNKPDHMIKPVEVTESA
B2: HA-OGT (enzyme, UniProt O15294 1-1046)
chain: MASSVGNVADSTEPTKRMLSFQGLAELAHREYQAGDFEAAERHCMQLWRQEPDNTGVLLLLSSIHFQCRRLDRSAHFSTLAIKQNPLLAEAYSNLGNVYKERGQLQEAIEHYRHALRLKPDFIDGYINLAAALVAAGDMEGAVQAYVSALQYNPDLYCVRSDLGNLLKALGRLEEAKACYLKAIETQPNFAVAWSNLGCVFNAQGEIWLAIHHFEKAVTLDPNFLDAYINLGNVLKEARIFDRAVAAYLRALSLSPNHAVVHGNLACVYYEQGLIDLAIDTYRRAIELQPHFPDAYCNLANALKEKGSVAEAEDCYNTALRLCPTHADSLNNLANIKREQGNIEEAVRLYRKALEVFPEFAAAHSNLASVLQQQGKLQEALMHYKEAIRISPTFADAYSNMGNTLKEMQDVQGALQCYTRAIQINPAFADAHSNLASIHKDSGNIPEAIASYRTALKLKPDFPDAYCNLAHCLQIVCDWTDYDERMKKLVSIVADQLEKNRLPSVHPHHSMLYPLSHGFRKAIAERHGNLCLDKINVLHKPPYEHPKDLKLSDGRLRVGYVSSDFGNHPTSHLMQSIPGMHNPDKFEVFCYALSPDDGTNFRVKVMAEANHFIDLSQIPCNGKAADRIHQDGIHILVNMNGYTKGARNELFALRPAPIQAMWLGYPGTSGALFMDYIITDQETSPAEVAEQYSEKLAYMPHTFFIGDHANMFPHLKKKAVIDFKSNGHIYDNRIVLNGIDLKAFLDSLPDVKIVKMKCPDGGDNADSSNTALNMPVIPMNTIAEAVIEMINRGQIQITINGFSISNGLATTQINNKAATGEEVPRTIIVTTRSQYGLPEDAIVYCNFNQLYKIDPSTLQMWANILKRVPNSVLWLLRFPAVGEPNIQQYAQNMGLPQNRIIFSPVAPKEEHVRRGQLADVCLDTPLCNGHTTGMDVLWAGTPMVTMPGETLASRVAASQLTCLGCLELIAKNRQEYEDIAVKLGTDLEYLKKVRGKVWKQRISSPLFNTKQYTMELERLYLQMWEHYAAGNKPDHMIKPVEVTESA

Legend:
[1] = molecular target: Lysine acetyltransferase 5 (KAT5), endogenous (human (endogenous in MHCC-97H)); assay: co-IP; endogenous OGT and KAT5 in MHCC-97H cells; lysis buffer 50 mM Tris-HCl pH 7.4, 1 mM EDTA, 150 mM NaCl, 1% Triton X-100; antibody overnight at 4 °C, protein A/G agarose beads
[2] = molecular target: Flag-tagged full-length KAT5 (WT); assay: co-IP; HA-OGT and Flag-tagged full-length or truncated KAT5 expressed in MHCC-97H cells; lysis buffer 50 mM Tris-HCl pH 7.4, 1 mM EDTA, 150 mM NaCl, 1% Triton X-100; antibody overnight at 4 °C, protein A/G agarose beads
[3] = molecular target: Flag-tagged truncated KAT5, Chr 1-209aa; assay: as above
[4] = molecular target: Flag-tagged truncated KAT5, Zn 76-315aa; assay: as above

Binder	binding [1]	binding [2]	binding [3]	binding [4]
B1	binds	–	–	–
B2	–	binds	binds	binds
